# Patent publication US20110165603A1, “SMALL MOLECULE FLUORESCENT SENSORS FOR DETECTION OF POST-TRANSLATIONALMODIFICATIONS AND PROTEIN INTERACTIONS IN BIOASSAYS” (Gyrasol Technologies Inc., priority 2008, published 2011)
# System: Protein Kinase A (PKA)
# Assay: Inhibition of Kemptide phosphorylation in mouse brain lysates (zirconyl sensor fluorescence quench)
# Assay type: biochemical
# Conditions: mouse brain lysate, Chromeo642-labeled Kemptide, FIG. 18
smiles,measurement,setting,value
CN[C@@H]1C[C@H]2O[C@@](C)([C@@H]1OC)n1c3ccccc3c3c4c(c5c6ccccc6n2c5c31)C(=O)NC4 [Staurosporine],inhibition of Kemptide phosphorylation,,minimally higher potency than the PKA specific inhibitor
same,inhibition of Kemptide phosphorylation,listed as staurosporine,almost identical to the inhibition achieved using a PKA-specific competitive substrate inhibitor
